Data source: PubChem BioAssay AID720505 (Drosophila RNAi Screening Center, 2013)

Screen: 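Knock-downs that reduce calcium influx once internal stores are emptied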 (primary screen)
System: Drosophila S2R+ cells
Knock-down reagent: long dsRNA against Drosophila genes
Challenge: thapsigargin (2 µM) in calcium-free buffer to empty internal stores, then 2 mM calcium added back
Measurement: 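Fluo-4 signal in 384-well plates read on a FLIPR after thapsigargin (2 µM, calcium-free) store depletion and 2 mM calcium add-back; unnormalised mean endpoint per well; screen run twice, selected wells retested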
Scale: calcium signal and retest calcium signal: higher = more calcium entry after store depletion
Active means: 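Knock-downs counted as hits when calcium entry dropped relative to STIM1 positive and Rho1 negative controls present on each plate; roughly 1500 genes called, with reductions of differing size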
Meaning of the calls: active = called as lowering calcium entry; inactive = not called
The screen tested about 20,000 reagents; this is an unselected part of those that have a named target and a result. Of all reagents, about 2,100 (10%) got an active call. 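Raw plate signals without normalisation; calls rest on control-based scores that were not deposited; replicate 2 separates called from uncalled poorly.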 Reagent sequences are not shown. The record does not give: the amount of reagent, the time to read-out.

Tcs5 (Threonyl-carbamoyl synthesis 5) [SID104189566] gave calcium signal, replicate 1 = 112; calcium signal, replicate 2 = 102; inactive.
For Tango4 (Transport and Golgi organization 4) [SID104199578], the entry reads calcium signal, replicate 1 = 138; calcium signal, replicate 2 = 107; inactive.
After knock-down of CG15536 [SID104194864], the screen gave calcium signal, replicate 1 = 147; calcium signal, replicate 2 = 130; retest calcium signal, replicate 1 = 13838; retest calcium signal, replicate 2 = 177; inactive.
Silencing of CG15536 [SID104202203] gave: calcium signal, replicate 1 = 95.5; calcium signal, replicate 2 = 108; inactive.
Against LBR (Lamin B receptor) [SID104184090] the deposit lists calcium signal, replicate 1 = 82.5; calcium signal, replicate 2 = 105; inactive.
CG10587 [SID104191419] gave calcium signal, replicate 1 = 76.6; calcium signal, replicate 2 = 111; inactive.
Muc14A (Mucin 14A) [SID104202621] gave calcium signal, replicate 1 = 146; calcium signal, replicate 2 = 85.5; inactive.
Silencing of Mid1 [SID104184022] resulted in: calcium signal, replicate 1 = 151; calcium signal, replicate 2 = 208; retest calcium signal, replicate 1 = 140; retest calcium signal, replicate 2 = 119; inactive.
Against Mid1 [SID104184023] the deposit lists calcium signal, replicate 1 = 104; calcium signal, replicate 2 = 188; inactive.
For Mid1 [SID104184100], the entry reads calcium signal, replicate 1 = 102; calcium signal, replicate 2 = 179; inactive.
Knock-down of Mid1 [SID104202134] gave: calcium signal, replicate 1 = 142; calcium signal, replicate 2 = 236; inactive.
Mid1 [SID104202162] showed calcium signal, replicate 1 = 98.1; calcium signal, replicate 2 = 122; inactive.
CG12699 [SID104185954] showed calcium signal, replicate 1 = 102; calcium signal, replicate 2 = 101; inactive.
Knock-down of CG3793 [SID104181774] came out at: calcium signal, replicate 1 = 78; calcium signal, replicate 2 = 83.5; inactive.
yellow-e3 [SID104194962] scored calcium signal, replicate 1 = 133; calcium signal, replicate 2 = 194; inactive.
Silencing of Uch-L5 (Ubiquitin carboxy-terminal hydrolase L5) [SID104191106] resulted in: calcium signal, replicate 1 = 77.5; calcium signal, replicate 2 = 107; inactive.
Against CG12448 [SID104181759], the values are calcium signal, replicate 1 = 117; calcium signal, replicate 2 = 93.7; inactive.
Silencing of brwl (brickwall) [SID104180872] came out at: calcium signal, replicate 1 = 112; calcium signal, replicate 2 = 117; inactive.
Knock-down of brwl (brickwall) [SID104182521] gave: calcium signal, replicate 1 = 75.8; calcium signal, replicate 2 = 90.5; inactive.
For CG11109 [SID104191425], the values are calcium signal, replicate 1 = 161; calcium signal, replicate 2 = 94.7; inactive.
knk (knickkopf) [SID104195785] gave calcium signal, replicate 1 = 91.8; calcium signal, replicate 2 = 94.2; inactive.
For CG12391 [SID104185939] the deposit lists calcium signal, replicate 1 = 160; calcium signal, replicate 2 = 145; inactive.
Knock-down of Fen1 (Flap endonuclease 1) [SID104187207] came out at: calcium signal, replicate 1 = 96.9; calcium signal, replicate 2 = 102; inactive.
CG12519 [SID104190103] scored calcium signal, replicate 1 = 119; calcium signal, replicate 2 = 161; inactive.
Depletion of CG12519 [SID104201264] resulted in: calcium signal, replicate 1 = 270; calcium signal, replicate 2 = 121; inactive.
fdl (fused lobes) [SID104187071] showed calcium signal, replicate 1 = 108; calcium signal, replicate 2 = 256; inactive.
crm (cramped) [SID104198546] gave calcium signal, replicate 1 = 115; calcium signal, replicate 2 = 95.5; retest calcium signal, replicate 1 = 90; retest calcium signal, replicate 2 = 101; inactive.
Against CG18011 [SID104186489], the entry reads calcium signal, replicate 1 = 151; calcium signal, replicate 2 = 161; inactive.
Silencing of CG18011 [SID104186498] came out at: calcium signal, replicate 1 = 85.2; calcium signal, replicate 2 = 141; inactive.

Entries listed so far whose target name begins with M or m (6):
Muc14A (Mucin 14A) [SID104202621] → calcium signal, replicate 1 = 146; calcium signal, replicate 2 = 85.5; Outcome = inactive
Mid1 [SID104184022] → calcium signal, replicate 1 = 151; calcium signal, replicate 2 = 208; retest calcium signal, replicate 1 = 140; retest calcium signal, replicate 2 = 119; Outcome = inactive
Mid1 [SID104184023] → calcium signal, replicate 1 = 104; calcium signal, replicate 2 = 188; Outcome = inactive
Mid1 [SID104184100] → calcium signal, replicate 1 = 102; calcium signal, replicate 2 = 179; Outcome = inactive
Mid1 [SID104202134] → calcium signal, replicate 1 = 142; calcium signal, replicate 2 = 236; Outcome = inactive
Mid1 [SID104202162] → calcium signal, replicate 1 = 98.1; calcium signal, replicate 2 = 122; Outcome = inactive
